This is one part of the list.
How the values were obtained:
Assay in all cases: glycan array binding signal (z-score within array); higher = stronger binding
Settings in all cases: glycan notation: IUPAC condensed, linker removed
[1] = molecular target: Neu5Ac(a2-3)Gal(b1-3)[Fuc(a1-4)]GlcNAc
How it was run: (§1)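 Glycan array binding is given as a within-array Z-score, which can be read as non-binding when negative. The arrays, 3228 of them, came from the Consortium for Functional Glycomics database and were retained only where the protein sequence was available. Z-scores were averaged across arrays of the same protein sequence at different concentrations or buffers and across linkers.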

[2] = molecular target: Neu5Ac(a2-3)Gal(b1-3)[Fuc(a1-4)]GlcNAc(b1-3)Gal(b1-3)[Fuc(a1-4)]GlcNAc
How it was run: as §1

[3] = molecular target: Neu5Ac(a2-3)Gal(b1-3)[Fuc(a1-4)]GlcNAc(b1-3)Gal(b1-4)[Fuc(a1-3)]GlcNAc
How it was run: as §1

[4] = molecular target: Neu5Ac(a2-3)Gal(b1-3)[GlcNAc(b1-6)]GalNAc
How it was run: as §1

[5] = molecular target: Neu5Ac(a2-3)Gal(b1-3)[Neu5Ac(a2-6)]GalNAc
How it was run: as §1

[6] = molecular target: Neu5Ac(a2-3)Gal(b1-3)[Neu5Ac(a2-6)]GlcNAc(b1-3)[Fuc(a1-3)[Gal(b1-4)]GlcNAc(b1-6)]Gal(b1-4)Glc
How it was run: as §1

[7] = molecular target: Neu5Ac(a2-3)Gal(b1-3)]Neu5Ac(a2-3)Gal(b1-4)]GlcNAc
How it was run: as §1

Neu5Ac(a2-3)Gal(b1-4)Glc = molecular target: Neu5Ac(a2-3)Gal(b1-4)Glc
How it was run: as §1

[8] = molecular target: Neu5Ac(a2-3)Gal(b1-4)GlcNAc
How it was run: as §1

[9] = molecular target: Neu5Ac(a2-3)Gal(b1-4)GlcNAc(b1-2)Man
How it was run: as §1

[10] = molecular target: Neu5Ac(a2-3)Gal(b1-4)GlcNAc(b1-2)Man(a1-3)[GlcNAc(b1-4)][Neu5Ac(a2-3)Gal(b1-4)GlcNAc(b1-2)Man(a1-6)]Man(b1-4)GlcNAc(b1-4)GlcNAc
How it was run: as §1

[11] = molecular target: Neu5Ac(a2-3)Gal(b1-4)GlcNAc(b1-2)Man(a1-3)[Neu5Ac(a2-3)Gal(b1-4)GlcNAc(b1-2)Man(a1-6)]Man(b1-4)GlcNAc(b1-4)GlcNAc
How it was run: as §1

[12] = molecular target: Neu5Ac(a2-3)Gal(b1-4)GlcNAc(b1-2)Man(a1-3)[Neu5Ac(a2-3)Gal(b1-4)GlcNAc(b1-2)Man(a1-6)]Man(b1-4)GlcNAc(b1-4)[Fuc(a1-6)]GlcNAc
How it was run: as §1

[13] = molecular target: Neu5Ac(a2-3)Gal(b1-4)GlcNAc(b1-2)Man(a1-3)[Neu5Ac(a2-6)Gal(b1-4)GlcNAc(b1-2)Man(a1-6)]Man(b1-4)GlcNAc(b1-4)GlcNAc
How it was run: as §1

[14] = molecular target: Neu5Ac(a2-3)Gal(b1-4)GlcNAc(b1-2)[Neu5Ac(a2-3)Gal(b1-4)GlcNAc(b1-4)]Man(a1-3)[GlcNAc(b1-4)][Neu5Ac(a2-3)Gal(b1-4)GlcNAc(b1-2)[Neu5Ac(a2-3)Gal(b1-4)GlcNAc(b1-6)]Man(a1-6)]Man(b1-4)GlcNAc(b1-4)GlcNAc
How it was run: as §1

[15] = molecular target: Neu5Ac(a2-3)Gal(b1-4)GlcNAc(b1-2)[Neu5Ac(a2-3)Gal(b1-4)GlcNAc(b1-4)]Man(a1-3)[GlcNAc(b1-4)][Neu5Ac(a2-3)Gal(b1-4)GlcNAc(b1-4)Man(a1-6)]Man(b1-4)GlcNAc(b1-4)GlcNAc
How it was run: as §1

[16] = molecular target: Neu5Ac(a2-3)Gal(b1-4)GlcNAc(b1-2)[Neu5Ac(a2-3)Gal(b1-4)GlcNAc(b1-6)]Man(a1-6)[Neu5Ac(a2-3)Gal(b1-4)GlcNAc(b1-2)Man(a1-3)]Man(b1-4)GlcNAc(b1-4)GlcNAc
How it was run: as §1

[17] = molecular target: Neu5Ac(a2-3)Gal(b1-4)GlcNAc(b1-2)[Neu5Ac(a2-3)Gal(b1-4)GlcNAc(b1-6)]Man(a1-6)[Neu5Ac(a2-3)Gal(b1-4)GlcNAc(b1-2)Man(a1-3)][GlcNAc(b1-4)]Man(b1-4)GlcNAc(b1-4)GlcNAc
How it was run: as §1

[18] = molecular target: Neu5Ac(a2-3)Gal(b1-4)GlcNAc(b1-3)Gal
How it was run: as §1

[19] = molecular target: Neu5Ac(a2-3)Gal(b1-4)GlcNAc(b1-3)Gal(b1-3)GlcNAc
How it was run: as §1

[20] = molecular target: Neu5Ac(a2-3)Gal(b1-4)GlcNAc(b1-3)Gal(b1-4)GlcNAc
How it was run: as §1

[21] = molecular target: Neu5Ac(a2-3)Gal(b1-4)GlcNAc(b1-3)Gal(b1-4)GlcNAc(b1-2)Man(a1-3)[Neu5Ac(a2-3)Gal(b1-4)GlcNAc(b1-3)Gal(b1-4)GlcNAc(b1-2)Man(a1-6)]Man(b1-4)GlcNAc(b1-4)GlcNAc
How it was run: as §1

[22] = molecular target: Neu5Ac(a2-3)Gal(b1-4)GlcNAc(b1-3)Gal(b1-4)GlcNAc(b1-3)Gal(b1-4)GlcNAc
How it was run: as §1

[23] = molecular target: Neu5Ac(a2-3)Gal(b1-4)GlcNAc(b1-3)Gal(b1-4)GlcNAc(b1-3)Gal(b1-4)GlcNAc(b1-2)Man(a1-3)[Neu5Ac(a2-3)Gal(b1-4)GlcNAc(b1-3)Gal(b1-4)GlcNAc(b1-3)Gal(b1-4)GlcNAc(b1-2)Man(a1-6)]GalNAc
How it was run: as §1

[24] = molecular target: Neu5Ac(a2-3)Gal(b1-4)GlcNAc(b1-3)Gal(b1-4)GlcNAc(b1-3)GalNAc
How it was run: as §1

[25] = molecular target: Neu5Ac(a2-3)Gal(b1-4)GlcNAc(b1-3)Gal(b1-4)GlcNAc(b1-3)[Neu5Ac(a2-3)Gal(b1-4)GlcNAc(b1-3)Gal(b1-4)GlcNAc(b1-6)]GalNAc
How it was run: as §1

[26] = molecular target: Neu5Ac(a2-3)Gal(b1-4)GlcNAc(b1-3)Gal(b1-4)GlcNAc(b1-6)[Gal(b1-3)]GalNAc
How it was run: as §1

[27] = molecular target: Neu5Ac(a2-3)Gal(b1-4)GlcNAc(b1-3)Gal(b1-4)[Fuc(a1-3)]GlcNAc
How it was run: as §1

[28] = molecular target: Neu5Ac(a2-3)Gal(b1-4)GlcNAc(b1-3)GalNAc
How it was run: as §1

[29] = molecular target: Neu5Ac(a2-3)Gal(b1-4)GlcNAc(b1-3)[Neu5Ac(a2-3)Gal(b1-4)GlcNAc(b1-6)]GalNAc
How it was run: as §1

B1: PX9961M-bvu-482-23-482 (Bacteroides vulgatus) (protein)
chain: WLDLAPSTQVDTETSINVLSDIEFTLNGIYSTMQSSDAYSGRLVYYGDVTGDDMQAVSSTKRTGNYYRFNFTKDNGPSSHWSYLYSIIQNCNLILMNVDKLSIDEDETEYKNDLKGQALAIRGMALFDLTRIFGYPYLKDNGASLGVPIVKELSTIDSKPARNTVAECYTEIISDLKNSTELLSGDFNKGKVNRWAAMTLLSRVYLYKGEYNEALTMAENAIKGAEKEGYALWTNEEYPTAWGNDASASNPGEILFEIVNLTTDSPGKESMGYLNSYNGYDDMCITCSFYQLLKKDPKDVRLKILSFDKKYYAYVNKYQPQQGENITDANIPLIRLSEAYLNAAEAAVQTGDNAKAVKYLNSIVQRANPENSVEGKTLTLENVLDERRKELVAEGHRMYDVIRNGMTVKRIDVKDSDINKTKHNTAYMEYDWNFHKILLPIPKKEMDANPNMKQNPGYVD
**Q.** What does the source list for B1?
**A.** glycan array binding signal (z-score) [1]: 0.051; glycan array binding signal (z-score) [2]: 0.573; glycan array binding signal (z-score) [3]: 0.838; glycan array binding signal (z-score) [4]: 0.107; glycan array binding signal (z-score) [5]: -0.425; glycan array binding signal (z-score) [6]: -0.221; glycan array binding signal (z-score) [7]: -0.084; glycan array binding signal (z-score) (Neu5Ac(a2-3)Gal(b1-4)Glc): -0.148; glycan array binding signal (z-score) [8]: -0.183; glycan array binding signal (z-score) [9]: -0.178; glycan array binding signal (z-score) [10]: 0.122; glycan array binding signal (z-score) [11]: -0.544; glycan array binding signal (z-score) [12]: 0.819; glycan array binding signal (z-score) [13]: 1.21; glycan array binding signal (z-score) [14]: 0.556; glycan array binding signal (z-score) [15]: 1.11; glycan array binding signal (z-score) [16]: 0.782; glycan array binding signal (z-score) [17]: -0.159; glycan array binding signal (z-score) [18]: 1.15; glycan array binding signal (z-score) [19]: -0.396; glycan array binding signal (z-score) [20]: -0.488; glycan array binding signal (z-score) [21]: 0.315; glycan array binding signal (z-score) [22]: -0.18; glycan array binding signal (z-score) [23]: 0.086; glycan array binding signal (z-score) [24]: -0.629; glycan array binding signal (z-score) [25]: -0.161; glycan array binding signal (z-score) [26]: -0.353; glycan array binding signal (z-score) [27]: -0.699; glycan array binding signal (z-score) [28]: 0.638; glycan array binding signal (z-score) [29]: -0.358

— the supplement of paper PMC8728848
